In patent US20060287233A1, “Method of use of antagonists of zonulin to prevent the loss of or to regenerate pancreatic cells” (priority 2005, published 2006):
Ends that are not written are not given here.

Tested on: intraluminal zonulin
Assay: Intraluminal zonulin by sandwich ELISA of intestinal lavage
Assay type: in vivo, rat

GGVLVQPG [FZI/O, synthetic octapeptide corresponding to amino acid residues 8-15 of human fetal zonulin]
intraluminal zonulin of treated rats that developed diabetes versus treated rats that did not (rat, in vivo): 3 fold | intraluminal zonulin of treated rats that did not develop diabetes (versus untreated controls): comparable with the untreated controls
